Library screening results

Chains of the proteins cited; added tags and fusions are not shown.
UniProt E9BF75, entry or part of it: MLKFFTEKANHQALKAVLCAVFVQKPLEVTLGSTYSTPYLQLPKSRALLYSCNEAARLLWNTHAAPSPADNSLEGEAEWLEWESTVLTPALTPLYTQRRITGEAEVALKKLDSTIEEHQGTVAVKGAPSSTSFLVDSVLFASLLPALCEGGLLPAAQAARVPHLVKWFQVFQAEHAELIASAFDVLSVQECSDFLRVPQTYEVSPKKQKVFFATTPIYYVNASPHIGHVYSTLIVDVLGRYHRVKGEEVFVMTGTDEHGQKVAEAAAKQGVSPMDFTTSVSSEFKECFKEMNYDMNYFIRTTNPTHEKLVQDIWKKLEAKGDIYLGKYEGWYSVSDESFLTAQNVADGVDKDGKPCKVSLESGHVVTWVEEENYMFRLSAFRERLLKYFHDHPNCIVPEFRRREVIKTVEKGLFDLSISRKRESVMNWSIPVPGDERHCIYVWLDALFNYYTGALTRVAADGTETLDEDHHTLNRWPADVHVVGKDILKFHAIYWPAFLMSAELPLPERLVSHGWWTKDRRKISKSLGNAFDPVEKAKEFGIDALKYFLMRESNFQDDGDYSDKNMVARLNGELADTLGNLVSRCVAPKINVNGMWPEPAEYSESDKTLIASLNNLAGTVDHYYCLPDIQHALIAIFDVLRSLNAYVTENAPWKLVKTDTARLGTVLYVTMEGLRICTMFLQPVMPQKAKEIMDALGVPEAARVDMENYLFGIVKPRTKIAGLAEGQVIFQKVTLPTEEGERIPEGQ

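Primary screen of methionyl-tRNA synthetase; the read-out is not stated. Target: Methionyl-tRNA synthetase (putative), Leishmania donovani (UniProt E9BF75). The test concentration is not given. Values are per cent inhibition. Of about 68,000 compounds tested this way, about 24 (0.035%) reached 50% or more in at least one test.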

Results are percentages, as filed. The controls that fix the scale are not given in the record; negative values are as filed. Compounds were drawn at random from those tested, without regard to their results.

CC(=O)N1CCC(c2n[nH]cc2-c2ccnc(N)c2)C1 (stereo not shown) gave 10.87%. For COCc1cc(N(C)Cc2cc(C(C)(C)C)n[nH]2)ncn1 the result was 16.62%. Result for CCn1cc2c(n1)C(COC)CN(C(=O)COc1ccccc1C)C2 (stereo not shown) was 15.88%. For O=C1CC(c2cccs2)c2sc(C(=O)O)c(-c3ccccc3)c2N1 (stereo not shown) the result was 12.54%. Result for O=C(NCc1ccco1)c1ccc(N2CCOCC2)cc1 was 6.832%.

CC(=O)N1CCCC1c1cncc(Oc2ccc(F)cc2)n1 (stereo not shown) gave 13.54%. CNc1nc(C2CCN(C(=O)CC3CCCC3)C2)nc2c1CN(C)CC2 (stereo not shown) gave 9.677%. N#Cc1ccc(CN2CCNC(=O)C2c2cccs2)cc1 (stereo not shown) gave 17.51%. With Cc1csc(N2CCN(CCCN3CCCC3=O)CC2)n1 the screen gave 4.83%. CC(NC(=O)NCCc1nc(C(F)(F)F)cs1)C(=O)N(C)C (stereo not shown) read 12.1%.

For NC(=O)c1cnn2c1NCC(CNCCCc1ccccc1)C2 (stereo not shown) the result was 17.49%. O=C(Cn1nc2c(cc1=O)CSCC2)NC(Cc1ccccc1)C(=O)O (stereo not shown) gave 8.714%. For CN(C)S(=O)(=O)N1CC[C@]2(O)CCN(Cc3cc(F)cc(F)c3)C[C@@H]2C1 the result was -2.241%. Result for O=C(NCCCc1ccncc1)C1CCCN(Cc2ccco2)C1 (stereo not shown) was 5.854%. With CCn1cnnc1CNC(=O)NC(C)c1ccccn1 (stereo not shown) the screen gave 7.229%.

With O=C(c1cnccn1)N1C[C@@H]2CC[C@H](C1)N(C(=O)Cc1ccsc1)C2 the screen gave 6.299%. Cc1c(NCc2ccc(C#N)cc2)cccc1S(=O)(=O)NC1CC1 read 8.681%. COCCn1ccc(NC(=O)Nc2ccccc2)n1 gave 16.19%. Result for c1ncn(Cc2nnc(C3CCN(C4CCOCC4)CC3)n2C2CC2)n1 was 15.84%. Cc1cc(CN(C)C(=O)NC2CCCC2)no1 read 4.467%.

O=C(Cc1ccc(F)cc1)NCCNS(=O)(=O)c1ccc(F)c(F)c1 gave 1.902%. For CCC1=N[C@@]2(CC[C@@H]3CN(S(=O)(=O)CC)C[C@@H]32)C(=O)N1CC(C)C the result was 13.73%. c1cc(N2CCC(c3nnc(Cn4ccnc4)n3C3CC3)CC2)ccn1 gave 16.88%. For CNC(=O)c1ccc(=O)n(Cc2csc(C(C)(C)C)n2)c1 the result was 14.54%. For Cc1noc(C(C)C)c1C(=O)NCCC(=O)N1CCCCC1 the result was 20.45%.

With Cc1cccc(NS(=O)(=O)c2cc3c(c(C(=O)O)c2)OCCO3)c1 the screen gave 8.659%. Cc1cccc(OCC2CCCN(C(=O)CN(C)C3CCNCC3)C2)c1 (stereo not shown) read 13.09%. With CC(=O)N1CCc2c(nc(N(C)C)nc2NCc2cccs2)C1 the screen gave 11.17%. Result for N#Cc1cccnc1OC1CCN(S(=O)(=O)c2ccc(F)c(Cl)c2)CC1 was 14.93%. Cc1nc(-c2nnc[nH]2)sc1C(=O)N1CCCC1c1ccsc1 (stereo not shown) gave 3.249%.

Cn1ncc2cnn(CC(O)COCc3ccccc3Cl)c2c1=O (stereo not shown) gave 15.36%. With O=C(c1ccncc1)N1CCC(O)(Cn2ccc3ccncc32)CC1 the screen gave 8.562%. O=C(c1cncc2ccccc12)N1CCC[C@@H]1CO gave 16.52%. CC(=O)NCCCSC1CCN(c2ccccc2F)C1=O (stereo not shown) gave 6.835%. Result for COc1cc(CNCCn2cc(C)cn2)cc2c1OCCO2 was 19.47%.

For Cc1cc2c(N3CCC(N(C)Cc4cnn(C)c4)CC3)ncnc2s1 the result was 24.38%. Cc1ccc(C(=O)N(C)CCCc2cnn(C)c2)cc1N1CCNC1=O read 14.5%. Result for O=C(CN1CCN(C(=O)c2ccccc2)CC1)Nc1ncc(Br)cc1Br was 2.975%. For Cc1csc(NC(=O)CN2CCc3c(nc(C4CC4)n3C)C2)n1 the result was 12.05%. Result for Cc1cccc(NC2CCN(C(=O)Nc3cc(F)ccc3F)CC2)n1 was 8.333%.

CN(Cc1cc2cc(F)ccc2[nH]1)C(=O)C1CC(=O)N(C2CCCC2)C1 (stereo not shown) read 24.29%. Result for CCC1CN(CC(=O)NCCC#N)CCO1 (stereo not shown) was 2.903%. CN(Cc1ccc(N(C)C)cc1)C(=O)CS(=O)(=O)c1ccc(Cl)cc1 gave 14.13%. With Cn1ncc2ccc(C3CCCN(Cc4cccs4)C3)nc21 (stereo not shown) the screen gave 10.59%. Result for Cc1csc(Nc2nccnc2C2CCCN2S(C)(=O)=O)n1 (stereo not shown) was 7.765%.

Result for CO[C@@H]1CC[C@H]2[C@H]1OCCN2C(=O)COc1ccc(C)cc1 was 15.5%. COc1cc(-n2cccc2)c(Cl)cc1C(N)=O gave 2.241%. CCc1n[nH]c(C2CN(C(=O)c3ncoc3CC)CCO2)n1 (stereo not shown) read 15.34%. Result for COc1ccccc1OCCN1CCC(N2CCNC2=O)CC1 was 1.587%. CCn1nc(C)cc1C(=O)NCc1nc(C)cc(C)n1 read 7.467%.

For O=C1CC(c2cccnc2)C2(CCN(S(=O)(=O)C3CC3)CC2)N1 (stereo not shown) the result was 19.19%. With COc1cccc(-c2n[nH]cc2C(=O)NC(C)c2n[nH]c(C)n2)c1 (stereo not shown) the screen gave 4.194%. Result for O=C(C1CN(Cc2ccsc2)Cc2ccnn2C1)N1CCCC1 (stereo not shown) was 14.19%. With O=C(Cc1cccs1)NCC1COCc2c(-c3ccoc3)nnn2C1 (stereo not shown) the screen gave -12.68%. Result for CCNc1nc(-c2cccnc2)c(-c2ccnc(NCCO)n2)s1 was 16.26%.

COc1ccc(Br)cc1CCC(=O)N1CCC(O)CC1 gave 5.108%. C[C@@H]1CN(Cc2cc(C(F)(F)F)ccc2F)CC[C@@]1(O)C1CC1 read 5.842%. With OCCC1CN(c2nc(-c3ccncc3)nc3c2CCNCC3)CCO1 (stereo not shown) the screen gave 10.64%. Result for CN1CCCN(c2ncnc(N3CCOCC3)c2N)CC1 was 13.06%. For COc1ccc2nc(NC(=O)c3c(C(=O)O)cnn3C)sc2c1 the result was 15.32%.

Repeated from the top, 4 entries:

{"compound": "CC(=O)N1CCC(c2n[nH]cc2-c2ccnc(N)c2)C1", "stereo": "stereo not shown", "Inhibition": 10.87}
{"compound": "COCc1cc(N(C)Cc2cc(C(C)(C)C)n[nH]2)ncn1", "Inhibition": 16.62}
{"compound": "CCn1cc2c(n1)C(COC)CN(C(=O)COc1ccccc1C)C2", "stereo": "stereo not shown", "Inhibition": 15.88}
{"compound": "O=C1CC(c2cccs2)c2sc(C(=O)O)c(-c3ccccc3)c2N1", "stereo": "stereo not shown", "Inhibition": 12.54}

Measurements from “University of Dundee, Small-Polar-MMV Screening Library” (2021), ChEMBL document CHEMBL3988442.